Results taken from US20070197430A1 (priority 2004, published 2007).

Assay: peptide made by a vendor (Fmoc solid-phase peptide synthesis; Rink resin; HBTU/DIPEA)
Settings: whole synthesis, 214 nm

For Acetyl-IAQ(E1)LRRIGD(E2)F-amide, the “final HPLC purity” value was 95% pure.
